In publication PMC3979746:
Results are given in words; binding and its absence hold for the method and conditions named. In cells and extracts the contact can be indirect. Some entries that bind do so weakly or less than the wild type. Where a sequence is shown, tags or fusion partners need not be part of it.

By UniProt entry, the sequences of proteins in these tests, tags left out. Where a name states a change or a piece, a line headed by the entry shows the natural chain unless it says otherwise. Chains listed by the source or under a name are the forms on record and can include a tag or linker.
UniProt Q8IZP1: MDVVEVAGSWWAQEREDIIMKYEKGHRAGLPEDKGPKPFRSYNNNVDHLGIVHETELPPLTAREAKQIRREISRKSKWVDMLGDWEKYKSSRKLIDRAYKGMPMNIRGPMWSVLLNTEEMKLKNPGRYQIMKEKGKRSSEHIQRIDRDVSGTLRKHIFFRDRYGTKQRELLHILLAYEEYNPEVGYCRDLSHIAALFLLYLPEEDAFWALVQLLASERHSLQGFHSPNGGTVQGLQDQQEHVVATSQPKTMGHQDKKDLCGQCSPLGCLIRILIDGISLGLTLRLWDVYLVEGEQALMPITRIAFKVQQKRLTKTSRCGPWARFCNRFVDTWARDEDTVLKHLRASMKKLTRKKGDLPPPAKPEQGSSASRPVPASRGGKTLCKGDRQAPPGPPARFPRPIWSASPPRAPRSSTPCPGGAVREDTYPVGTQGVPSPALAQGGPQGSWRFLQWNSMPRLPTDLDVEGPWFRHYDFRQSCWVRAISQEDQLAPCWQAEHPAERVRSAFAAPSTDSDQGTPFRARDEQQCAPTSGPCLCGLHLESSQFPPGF
HA-TBC1D3(Δ286-319) (Q8IZP1, form named): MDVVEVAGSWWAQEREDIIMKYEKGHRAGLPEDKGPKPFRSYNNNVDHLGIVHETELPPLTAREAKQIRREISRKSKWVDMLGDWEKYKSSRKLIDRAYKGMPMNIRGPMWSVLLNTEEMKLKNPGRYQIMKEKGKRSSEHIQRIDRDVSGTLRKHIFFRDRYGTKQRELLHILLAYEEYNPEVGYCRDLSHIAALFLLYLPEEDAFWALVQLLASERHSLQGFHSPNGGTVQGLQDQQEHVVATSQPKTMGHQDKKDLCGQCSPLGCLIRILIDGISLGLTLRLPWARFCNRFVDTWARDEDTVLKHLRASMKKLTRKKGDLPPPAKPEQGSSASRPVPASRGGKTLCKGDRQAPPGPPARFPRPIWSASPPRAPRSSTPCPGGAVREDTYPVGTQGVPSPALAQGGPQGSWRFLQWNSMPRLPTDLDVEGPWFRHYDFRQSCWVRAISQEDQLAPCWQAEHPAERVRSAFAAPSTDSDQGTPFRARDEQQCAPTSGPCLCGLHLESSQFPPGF
HA-TBC1D3(Δ320-353) (Q8IZP1, form named): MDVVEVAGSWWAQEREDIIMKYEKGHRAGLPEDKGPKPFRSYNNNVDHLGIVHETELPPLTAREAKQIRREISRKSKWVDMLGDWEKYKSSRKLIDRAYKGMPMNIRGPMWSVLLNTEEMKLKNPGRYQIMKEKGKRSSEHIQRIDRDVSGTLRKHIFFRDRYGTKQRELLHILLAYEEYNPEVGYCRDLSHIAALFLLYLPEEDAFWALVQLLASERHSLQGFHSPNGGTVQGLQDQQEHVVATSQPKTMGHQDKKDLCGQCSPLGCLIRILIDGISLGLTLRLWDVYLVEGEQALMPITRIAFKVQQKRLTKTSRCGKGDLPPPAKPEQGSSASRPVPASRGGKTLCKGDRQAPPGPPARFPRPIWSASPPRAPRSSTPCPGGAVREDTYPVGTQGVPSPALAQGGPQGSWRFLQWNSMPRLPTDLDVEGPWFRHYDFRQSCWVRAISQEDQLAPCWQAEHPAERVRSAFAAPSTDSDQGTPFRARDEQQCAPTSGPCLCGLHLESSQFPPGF

Target: T1, GST-GGA3(298) (human) (UniProt Q9NZ52)
T1 sequence: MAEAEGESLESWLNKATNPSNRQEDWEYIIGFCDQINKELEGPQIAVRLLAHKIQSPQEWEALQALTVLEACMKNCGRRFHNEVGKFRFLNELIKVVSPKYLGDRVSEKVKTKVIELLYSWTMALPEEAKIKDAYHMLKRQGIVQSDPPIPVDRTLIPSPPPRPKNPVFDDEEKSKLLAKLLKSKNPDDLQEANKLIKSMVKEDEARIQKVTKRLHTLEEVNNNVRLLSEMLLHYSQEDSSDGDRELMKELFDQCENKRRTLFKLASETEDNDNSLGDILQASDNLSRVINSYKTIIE
Assay: pull-down; bacterially purified GST-GGA3(298) or GST on glutathione-Sepharose 4B beads incubated 4 h at 4°C with extracts of SMMC7721 cells transfected with HA-TBC1D3 or internal deletion mutants; anti-HA blot; only the target purified

Row | binding | Substance
1 | binds | HA-TBC1D3(Δ286-319) (from UniProt Q8IZP1 1-549)
2 | binds | HA-TBC1D3(Δ320-353) (from UniProt Q8IZP1 1-549)
3 | binds | HA-tagged TBC1D3 (from UniProt Q8IZP1 1-549)
